According to paper PMC4758748:
No constants are given. Whether binding was seen depends on the method and setting. For part of these data: Binding seen in cells or lysates may run through a third protein. Some results given as binding are weak or reduced against the parent protein; the word gives no strength. For part of these data: Where a sequence is shown, tags or fusion partners need not be part of it. Each block holds one binder with its values, some of them ahead of it.

Experiments:
Iqg1-6HA (S. cerevisiae) = molecular target: T1, Iqg1-6HA (S. cerevisiae) (UniProt Q12280); experiment: co-IP; yeast extract of IQG1-6HA cells 105 minutes after release from G1 (cytokinesis); immunoprecipitation of Iqg1-6HA; immunoblot with antibodies against Chs2, Inn1 and Cyk3
T1 sequence: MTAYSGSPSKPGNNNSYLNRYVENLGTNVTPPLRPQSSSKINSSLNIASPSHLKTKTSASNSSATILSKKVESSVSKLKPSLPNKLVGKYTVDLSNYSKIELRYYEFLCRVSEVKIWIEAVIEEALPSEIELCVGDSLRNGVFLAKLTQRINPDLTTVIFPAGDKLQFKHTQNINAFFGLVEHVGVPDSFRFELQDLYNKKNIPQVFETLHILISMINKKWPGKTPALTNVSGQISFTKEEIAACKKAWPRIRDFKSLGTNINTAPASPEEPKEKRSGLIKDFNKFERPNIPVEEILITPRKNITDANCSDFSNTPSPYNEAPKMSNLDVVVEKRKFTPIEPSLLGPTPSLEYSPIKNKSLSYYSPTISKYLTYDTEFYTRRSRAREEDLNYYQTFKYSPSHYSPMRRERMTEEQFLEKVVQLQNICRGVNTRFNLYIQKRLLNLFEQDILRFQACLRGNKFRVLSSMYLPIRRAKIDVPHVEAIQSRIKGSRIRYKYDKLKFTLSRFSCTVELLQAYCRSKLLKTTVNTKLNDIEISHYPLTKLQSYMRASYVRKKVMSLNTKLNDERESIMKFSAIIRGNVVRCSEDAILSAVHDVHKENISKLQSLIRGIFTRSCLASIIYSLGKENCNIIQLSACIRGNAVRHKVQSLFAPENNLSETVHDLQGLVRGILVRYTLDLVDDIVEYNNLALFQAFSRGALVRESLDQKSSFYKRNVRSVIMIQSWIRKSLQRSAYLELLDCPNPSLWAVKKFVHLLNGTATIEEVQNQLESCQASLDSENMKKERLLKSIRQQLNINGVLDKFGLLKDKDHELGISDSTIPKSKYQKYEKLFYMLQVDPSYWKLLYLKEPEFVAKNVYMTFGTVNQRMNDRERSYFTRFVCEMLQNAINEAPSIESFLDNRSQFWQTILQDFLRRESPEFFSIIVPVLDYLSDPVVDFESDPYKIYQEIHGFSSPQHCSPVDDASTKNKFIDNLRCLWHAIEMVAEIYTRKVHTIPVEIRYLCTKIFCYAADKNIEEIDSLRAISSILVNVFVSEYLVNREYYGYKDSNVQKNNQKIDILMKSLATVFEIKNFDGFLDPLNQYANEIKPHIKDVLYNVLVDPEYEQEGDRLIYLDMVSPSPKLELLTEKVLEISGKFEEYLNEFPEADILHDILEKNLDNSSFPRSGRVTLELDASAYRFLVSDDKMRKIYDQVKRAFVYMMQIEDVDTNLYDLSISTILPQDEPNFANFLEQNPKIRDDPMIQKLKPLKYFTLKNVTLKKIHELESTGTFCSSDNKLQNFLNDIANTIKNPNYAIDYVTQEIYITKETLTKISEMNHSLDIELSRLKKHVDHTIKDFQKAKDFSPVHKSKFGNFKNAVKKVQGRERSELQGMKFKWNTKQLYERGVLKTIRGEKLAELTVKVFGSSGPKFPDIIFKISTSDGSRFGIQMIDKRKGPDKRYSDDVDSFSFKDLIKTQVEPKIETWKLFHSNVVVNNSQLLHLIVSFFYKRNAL

Inn1-TAP (S. cerevisiae) = molecular target: T2, Inn1-TAP (S. cerevisiae) (UniProt P53901); experiment: co-IP; yeast cell extracts 105 minutes after release from G1 arrest (alpha factor) at 24°C, cells in cytokinesis; TAP fusions immunoprecipitated on IgG beads; immunoblot
T2 sequence: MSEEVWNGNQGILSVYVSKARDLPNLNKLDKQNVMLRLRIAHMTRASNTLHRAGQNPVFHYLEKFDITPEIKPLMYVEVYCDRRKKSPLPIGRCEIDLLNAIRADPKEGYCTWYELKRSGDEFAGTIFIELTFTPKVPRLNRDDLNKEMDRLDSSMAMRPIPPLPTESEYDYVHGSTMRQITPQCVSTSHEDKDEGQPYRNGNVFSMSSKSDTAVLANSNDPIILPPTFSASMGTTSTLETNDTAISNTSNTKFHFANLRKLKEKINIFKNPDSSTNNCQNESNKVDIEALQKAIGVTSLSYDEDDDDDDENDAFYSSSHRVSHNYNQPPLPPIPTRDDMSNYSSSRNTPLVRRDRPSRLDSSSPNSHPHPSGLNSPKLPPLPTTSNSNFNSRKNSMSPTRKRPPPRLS

[1] = molecular target: T3, C-terminus of Inn1 (134-409) (two-hybrid fusion) (S. cerevisiae) (UniProt P53901); experiment: two-hybrid; vectors pGADT7 and pGBKT7 (Clontech); growth for two or three days at 30°C on Synthetic Complete medium lacking leucine, tryptophan and histidine (selective)
T3 sequence: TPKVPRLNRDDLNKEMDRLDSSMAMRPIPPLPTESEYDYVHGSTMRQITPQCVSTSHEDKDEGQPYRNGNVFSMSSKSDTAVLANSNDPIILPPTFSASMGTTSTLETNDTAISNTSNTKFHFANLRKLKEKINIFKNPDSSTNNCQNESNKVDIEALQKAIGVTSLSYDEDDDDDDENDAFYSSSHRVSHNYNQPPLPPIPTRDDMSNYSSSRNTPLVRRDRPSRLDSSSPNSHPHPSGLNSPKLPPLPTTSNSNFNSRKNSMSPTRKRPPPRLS

[2] = molecular target: T4, Chs2-1-629 (two-hybrid fusion) (S. cerevisiae) (UniProt P14180); experiment: as above
T4 sequence: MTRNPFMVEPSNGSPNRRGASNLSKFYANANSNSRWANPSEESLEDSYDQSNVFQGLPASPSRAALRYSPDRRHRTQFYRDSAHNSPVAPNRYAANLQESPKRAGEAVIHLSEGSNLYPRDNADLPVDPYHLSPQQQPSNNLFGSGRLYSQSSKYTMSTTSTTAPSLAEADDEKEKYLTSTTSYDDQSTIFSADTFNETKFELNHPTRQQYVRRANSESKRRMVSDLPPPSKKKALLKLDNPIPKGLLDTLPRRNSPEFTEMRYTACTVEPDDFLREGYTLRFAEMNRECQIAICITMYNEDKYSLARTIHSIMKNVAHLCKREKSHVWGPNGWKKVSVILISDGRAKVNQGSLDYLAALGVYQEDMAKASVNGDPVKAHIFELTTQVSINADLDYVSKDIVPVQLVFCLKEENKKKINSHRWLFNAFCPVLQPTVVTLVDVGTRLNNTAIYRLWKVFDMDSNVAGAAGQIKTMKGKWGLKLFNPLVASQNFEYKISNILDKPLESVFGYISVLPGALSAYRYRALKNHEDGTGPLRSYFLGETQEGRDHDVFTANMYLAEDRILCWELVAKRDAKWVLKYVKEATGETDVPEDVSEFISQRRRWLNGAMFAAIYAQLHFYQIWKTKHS

binding (Iqg1-6HA (S. cerevisiae)): binds
B1: Inn1 (in yeast extract, detected with anti-Inn1 antibodies) (protein, UniProt P53901 1-409)
chain: T2 sequence

binding (Iqg1-6HA (S. cerevisiae)): binds
B2: Chs2 (in yeast extract, detected with anti-Chs2 antibodies) (enzyme, UniProt P14180 1-963)
chain: MTRNPFMVEPSNGSPNRRGASNLSKFYANANSNSRWANPSEESLEDSYDQSNVFQGLPASPSRAALRYSPDRRHRTQFYRDSAHNSPVAPNRYAANLQESPKRAGEAVIHLSEGSNLYPRDNADLPVDPYHLSPQQQPSNNLFGSGRLYSQSSKYTMSTTSTTAPSLAEADDEKEKYLTSTTSYDDQSTIFSADTFNETKFELNHPTRQQYVRRANSESKRRMVSDLPPPSKKKALLKLDNPIPKGLLDTLPRRNSPEFTEMRYTACTVEPDDFLREGYTLRFAEMNRECQIAICITMYNEDKYSLARTIHSIMKNVAHLCKREKSHVWGPNGWKKVSVILISDGRAKVNQGSLDYLAALGVYQEDMAKASVNGDPVKAHIFELTTQVSINADLDYVSKDIVPVQLVFCLKEENKKKINSHRWLFNAFCPVLQPTVVTLVDVGTRLNNTAIYRLWKVFDMDSNVAGAAGQIKTMKGKWGLKLFNPLVASQNFEYKISNILDKPLESVFGYISVLPGALSAYRYRALKNHEDGTGPLRSYFLGETQEGRDHDVFTANMYLAEDRILCWELVAKRDAKWVLKYVKEATGETDVPEDVSEFISQRRRWLNGAMFAAIYAQLHFYQIWKTKHSVVRKFFLHVEFLYQFIQMLFSWFSIANFVLTFYYLAGSMNLVIKHGEALFIFFKYLIFCDLASLFIISMGNRPQGAKHLFITSMVILSICATYSLICGFVFAFKSLASGTESHKIFVDIVISLLSTYGLYFFSSLMYLDPWHMFTSSIQYFLTLPAFTCTLQIFAFCNTHDVSWGTKGSTQESKQLSKAIVVQGPDGKQIVETDWPQEVDKKFLEIKSRLKEPEFEESSGNEKQSKNDYYRDIRTRIVMIWMLSNLILIMSIIQVFTPQDTDNGYLIFILWSVAALAAFRVVGSMAFLFMKYLRIIVSYRNKVEGSGSWEVSKLDLPNVFHKKG

binding (Inn1-TAP (S. cerevisiae)): binds
binding (Iqg1-6HA (S. cerevisiae)): binds
B3: Cyk3 (endogenous, in yeast extract) (protein, UniProt Q07533 1-885)
chain: MATNLTSLKPPFKVKARYGWSGQTKGDLGFLEGDIMEVTRIAGSWFYGKLLRNKKCSGYFPHNFVILLEERLNSSTENGRQPSKIVESFEKSNKVVIPPVPSRYSDERPRPKKKLSSSMPNSPKKPVDSLTKARKAKSKEMVNEKNIYNTQSSRHHNNSAPNLPLASHSKPQVRNFEESMNNPLPPLPPLPDLDNMRKTDKRAPKKSYSANDLHMARSSREYNYYKDNQKFYDGFIPEKRYSLEEDSISSGLFSNSQYLNDSACSSENSFALMSDFSATSAGSFARHKYAQSFSDSLQRSQNANGCSTKINDSQEFGDSNASSRNGKMGDILRKIIIPKRNTNIYSSSVSSPKSPKAYPKLPDIQNLNLSATPDEARDWIAVKCHLNRARTLTKYDKHPRYMRALEENRDLILHPQDSIYNGLNTNEVKGNTKPGLVDVELAELNIEYIDKMTWKRCIRDGTMTLDSWAQTTFSARYSTVLEKLRGIYIFCTEMFALTDDNGTSDFSAEPQNLEKILYRKHCTPYELTWLFKKLANSLGITCEIVIGFLKTPSAINWEFKYNHCWLRILVNKEWRFIDVILGNVTNPIHEFVNNRKIKKAENSYFLMAPLEMIYTHIPPREFEQHIVPSIDQLSALYLPLVFPSFFKNELKLYKFSTALSFLEDSEIYECSLEIPNDVEVFASVVIPTDNEEASSAYRNMELALTQIKKQKAESGRRIALIKAVLPPNVNKGSLYIHSGVRGTQTSIANIHPLSMMVPLTHKGSNMKYEFVIKIPSESIQKIELYIVEPQSRYLFVGNEYSFEVIQSPSDGIVYSSDEGPNQNRKQPMAIKSPSGRVHELVKSDPHFPYGTWKGSIKIKEPGVWSALVIADSGIGWSVFAEWLCV

binding [1]: binds
binding [2]: no binding
B4: Cyk3 SH3 domain (two-hybrid fusion) (domain or fragment, UniProt Q07533 9-70)
chain: KPPFKVKARYGWSGQTKGDLGFLEGDIMEVTRIAGSWFYGKLLRNKKCSGYFPHNFVILLEE
